Here are results for 24 molecules from PubChem BioAssay AID256 (DTP/NCI, 2004).

The list is a part of this screen's results and no random one: it is rich in T/C values a quarter to a half above the control, in often repeated tests (any T/C) and in doses without a T/C. Further doses and runs are listed elsewhere. T/C: endpoint of the treated group in % of that of the vehicle group. Some doses have a count of surviving animals in place of a T/C: the source files T/C as zero there, which appears to mark a toxic dose or a test without result, not a measured value. Some survivor counts are full or nearly so, which does not show that the dose was tolerated: the source hardly ever lists a survival T/C far under the control, and the zero likely stands for such cases as well. Counts of survivors are from the toxicity check (mostly the fifth day) where no day follows; animals may have died later. Schedule codes are those of the source, read here as Q, the interval in days (D) or hours (H), X, the number of doses. Some entries were tested several times; their values stand side by side, smallest first. For survival time, this PubChem deposit counts one and a half times the control or more as active, and values a quarter to a half above the control carry no call in these data; other NCI protocols may use other cut-offs. Some T/C values are followed by the survivors on the day toxicity was checked, most often the fifth; without a count, all were alive then.

In the assay the test system is CD2F1 mice, L1210 leukemia ip, survival T/C. Description: NCI In Vivo Anticancer Drug Screen. Data for tumor model L1210 Leukemia (intraperitoneal) in CD2F1 (CDF1) mice. To be noted: higher T/C = longer survival. The method in brief:
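Each value reflects a quotient of treated over vehicle control outcomes in mice with a transplanted tumor.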

Where [1] appears, read: T/C endpoint: mean survival time, dose: 75.0 mg/kg/injection, schedule: Q01DX001 (ip), vehicle: saline.
[2] abbreviates: T/C endpoint: mean survival time, dose: 150.0 mg/kg/injection, schedule: Q01DX001 (ip), vehicle: saline.
Where [3] appears, read: T/C endpoint: mean survival time, dose: 300.0 mg/kg/injection, schedule: Q01DX001 (ip), vehicle: saline.
The mark [4] stands for this setting: T/C endpoint: mean survival time, dose: 200.0 mg/kg/injection, schedule: Q01DX001 (ip), vehicle: saline with Tween-80.
[5] abbreviates: T/C endpoint: mean survival time, dose: 400.0 mg/kg/injection, schedule: Q04DX003 (ip), vehicle: saline with Tween-80.
[6] abbreviates: T/C endpoint: mean survival time, dose: 100.0 mg/kg/injection, schedule: Q01DX009 (ip), vehicle: saline with Tween-80.
[7] abbreviates: T/C endpoint: mean survival time, dose: 200.0 mg/kg/injection, schedule: Q01DX009 (ip), vehicle: saline with Tween-80.
[8] abbreviates: T/C endpoint: mean survival time, dose: 100.0 mg/kg/injection, schedule: Q04DX002 (ip), vehicle: saline with Tween-80.

For the molecule `CC(C)=NNS(=O)(=O)c1ccccc1`, the survivor count is given as 0 of 6 (T/C endpoint: mean survival time, dose: 200.0 mg/kg/injection, schedule: Q01DX005 (ip), vehicle: Klucel (hydroxypropylcellulose) (HPC)) and 0 of 6 (T/C endpoint: mean survival time, dose: 400.0 mg/kg/injection, schedule: Q01DX005 (ip), vehicle: Klucel (hydroxypropylcellulose) (HPC)).

Turning to `OCCN1CCN(CCCN2c3ccccc3Sc3ccc(Cl)cc32)CC1`, the T/C runs as follows: (T/C endpoint: mean survival time, dose: 25.0 mg/kg/injection, schedule: Q04DX002 (ip), vehicle: Klucel (hydroxypropylcellulose) (HPC)) 131 % of control [5 of 6 alive]; (T/C endpoint: mean survival time, dose: 50.0 mg/kg/injection, schedule: Q01DX009 (ip), vehicle: Klucel (hydroxypropylcellulose) (HPC)) 127 % of control [5 of 6 alive]; (T/C endpoint: mean survival time, dose: 50.0 mg/kg/injection, schedule: Q04DX003 (ip), vehicle: saline) 127 % of control; (T/C endpoint: mean survival time, dose: 100.0 mg/kg/injection, schedule: Q04DX003 (ip), vehicle: saline) 128 and 130 % of control; (T/C endpoint: mean survival time, dose: 200.0 mg/kg/injection, schedule: Q04DX003 (ip), vehicle: saline) 135 % of control [5 of 6 alive]. In addition, the survivor count (T/C endpoint: mean survival time, dose: 50.0 mg/kg/injection, schedule: Q04DX009 (ip), vehicle: Klucel (hydroxypropylcellulose) (HPC)) was 2 of 6; the survivor count (T/C endpoint: mean survival time, dose: 100.0 mg/kg/injection, schedule: Q04DX009 (ip), vehicle: Klucel (hydroxypropylcellulose) (HPC)) is recorded as 0 of 6; the survivor count (T/C endpoint: mean survival time, dose: 200.0 mg/kg/injection, schedule: Q04DX009 (ip), vehicle: Klucel (hydroxypropylcellulose) (HPC)) is on record as 0 of 6.

For `Cc1ccc([P+](Cc2ccccc2)(c2ccccc2)c2ccccc2)cc1`, the survivor count was 0 of 6 under setting [1]; 0 of 6 (T/C endpoint: mean survival time, dose: 80.0 mg/kg/injection, schedule: Q01DX001 (ip), vehicle: saline); 0 of 6 under setting [2]; 0 of 6 under setting [3].

Consider `CCN(CC)CCCC(C)NC(c1ccc2c(c1)Sc1ccccc1O2)[P+](=O)O` (stereo not given), for which, under “T/C endpoint: mean survival time, dose: 400.0 mg/kg/injection, schedule: Q01DX001 (ip), vehicle: saline sonified”, the survivor count was 0 of 6.

Consider `NC(N)=N/N=C/c1ccc(-c2ccccc2)cc1`, for which the survivor count reads like this: (T/C endpoint: mean survival time, dose: 100.0 mg/kg/injection, schedule: Q01DX001 (ip), vehicle: saline with Tween-80) 0 of 6; under setting [4], 0 of 6; (T/C endpoint: mean survival time, dose: 400.0 mg/kg/injection, schedule: Q01DX001 (ip), vehicle: saline with Tween-80) 0 of 6.

As for `CCCCCC#CC(=O)OC`, the survivor count under setting [5] was 0 of 6.

Take `Cc1ccc(S(=O)(=O)Oc2ccc(Br)cc2)cc1`: the survivor count (T/C endpoint: mean survival time, dose: 400.0 mg/kg/injection, schedule: Q04DX002 (ip), vehicle: saline with Tween-80) was 3 of 3.

Take `CN(C)c1ccc(C(=C(c2ccc(N(C)C)cc2)c2ccc(N(C)C)cc2)c2ccc(N(C)C)cc2)cc1`: the survivor count is listed as 0 of 6 under setting [2] and 0 of 6 under setting [3].

Regarding `CCOP(=O)(OCC)C(C)c1ccccc1` (stereo not given), the survivor count (T/C endpoint: mean survival time, dose: 400.0 mg/kg/injection, schedule: Q01DX009 (ip), vehicle: saline with Tween-80) is 3 of 6.

On to `CCCCOC(=O)/C=C(\Br)C(=O)OCCCC`, for which the survivor count is, setting by setting: (T/C endpoint: mean survival time, dose: 50.0 mg/kg/injection, schedule: Q01DX009 (ip), vehicle: saline with Tween-80) 5 of 6; under setting [6], 6 of 6; under setting [7], 0 of 6 and 1 of 6.

Take `CCCCCC[C@H]([C@H](C)O)n1cnc2c(N)ncnc21`: the survivor count runs as follows: (T/C endpoint: mean survival time, dose: 150.0 mg/kg/injection, schedule: Q03HX024 (ip), vehicle: saline with Tween-80) 6 of 6; (T/C endpoint: mean survival time, dose: 200.0 mg/kg/injection, schedule: Q01DX009 (ip), vehicle: Klucel (hydroxypropylcellulose) (HPC)) 1 of 6; (T/C endpoint: median survival time, dose: 200.0 mg/kg/injection, schedule: Q01DX009 (ip), vehicle: Klucel (hydroxypropylcellulose) (HPC)) 2 of 6.

Consider `Cc1ccc(N=C(C(=Nc2ccc(C)cc2)c2ccccc2)c2ccccc2)cc1`, for which the survivor count under setting [6] is 6 of 6.

For the molecule `N#Cc1cn(C2OC(CO)C(O)C2O)c2ncn3ncnc3c12` (stereo not given), the survivor count reads like this: (T/C endpoint: mean survival time, dose: 200.0 mg/kg/injection, schedule: Q01DX005 (ip), vehicle: distilled water + Tween-80) 4 of 6; (T/C endpoint: mean survival time, dose: 400.0 mg/kg/injection, schedule: Q01DX005 (ip), vehicle: distilled water + Tween-80) 0 of 6.

On to `O=S(=O)(OCC(COS(=O)(=O)c1ccccc1)(COS(=O)(=O)c1ccccc1)COS(=O)(=O)c1ccccc1)c1ccccc1`, for which the survivor count under setting [5] is listed as 6 of 6.

Turning to `CCCCCCCCCCCCNC1=CC(=O)c2nccnc2C1=O`, the survivor count under setting [7] is recorded as 1 of 3.

Take `O=C(Oc1ccc(=O)[nH]n1)c1ccccc1`: the survivor count under setting [8] is 3 of 3.

In the case of `O=C1Nc2ccc3c4c(ccc1c24)CC3`, the survivor count under setting [4] is given as 6 of 6.

For the molecule `Cc1ccc(C(=O)CCl)c(C)c1`, the survivor count (T/C endpoint: mean survival time, dose: 100.0 mg/kg/injection, schedule: Q04DX003 (ip), vehicle: Klucel (hydroxypropylcellulose) (HPC)) is 2 of 6.

For the molecule `O=c1[nH]c(=O)n(C2CC(O)C(CO)O2)cc1S` (stereo not given), the T/C runs as follows: (T/C endpoint: mean survival time, dose: 50.0 mg/kg/injection, schedule: Q01DX005 (ip), vehicle: water) 125 % of control; (T/C endpoint: mean survival time, dose: 100.0 mg/kg/injection, schedule: Q01DX005 (ip), vehicle: water) 129 % of control; (T/C endpoint: mean survival time, dose: 200.0 mg/kg/injection, schedule: Q01DX005 (ip), vehicle: water) 127 and 137 % of control; (T/C endpoint: mean survival time, dose: 400.0 mg/kg/injection, schedule: Q01DX005 (ip), vehicle: water) 129 % of control.

As for `N#CCCN=C1C=CC(=C(c2ccc(NCCC#N)cc2)c2ccccc2Cl)C=C1`, under setting [8], the survivor count was 3 of 3.

As to `C[n+]1c(-c2cc(Cl)cc(Cl)c2)c2cc(N)ccc2c2ccccc21`, the survivor count is, setting by setting: (T/C endpoint: mean survival time, dose: 50.0 mg/kg/injection, schedule: Q01DX009 (ip), vehicle: water) 6 of 6; (T/C endpoint: mean survival time, dose: 100.0 mg/kg/injection, schedule: Q01DX009 (ip), vehicle: water) 0 of 6.

In the case of `CCCCc1ccc(C(=O)O)nc1.[Cu+2]`, the survivor count is, setting by setting: under setting [1], 0 of 6; under setting [2], 0 of 6; under setting [3], 0 of 6.

Take `N#C[Se-].c1ccc([Te+](c2ccccc2)c2ccccc2)cc1`: the survivor count (T/C endpoint: median survival time, dose: 25.0 mg/kg/injection, schedule: Q01DX009 (ip), vehicle: Klucel (hydroxypropylcellulose) (HPC)) is reported as 0 of 6.

For `C1CSC(=[N+]2CC[N+](=C3SCCS3)CC2)S1`, the survivor count (T/C endpoint: mean survival time, dose: 50.0 mg/kg/injection, schedule: Q01DX009 (ip), vehicle: saline) is given as 0 of 3 and the survivor count (T/C endpoint: mean survival time, dose: 100.0 mg/kg/injection, schedule: Q04DX002 (ip), vehicle: saline) is recorded as 0 of 3.
